From US20120076899A1, “SHELF STABLE MONATIN SWEETENED BEVERAGE” (Cargill, Incorporated, priority 2009, published 2012)

Assay: Organoleptic evaluation: flavor scoring of stored monatin samples
Protocol: Synthetic R,R-monatin containing approximately 95.4% R,R-monatin monopotassium salt (dry basis) was obtained from CSIR (Modderfontein, South Africa). About 35 mg/L of this monatin was placed in a buffered solution at a pH of about 2.8-3.0 comprising 9 mM citric acid-trisodium citrate in high purity water and preserved with about 150 mg/L sodium benzoate. To some samples 200 ppm SANMELIN™ AO-3000 enzymatically modified isoquercitrin (EMIQ) (San-Ei Gen F.F.I.—Osaka, Japan) was added. Dissolved O2 levels were either increased by bubbling compressed air or reduced by bubbling N2 (99.9% purity) through these samples until the target O2 concentrations were achieved. Dissolved O2 levels were determined at 20° C. using a FOXY fluorescence quenching O2 analyzer from Ocean Optics (Dunedin, Fla.). Samples were stored in clear, glass ampules (˜10 mL) after O2 adjustment and heat-sealed to create an air-tight enclosure. The samples were then either stored in the dark, or exposed to light continuously (24 hours per day) in a light box (˜2200 lux light intensity) configured with a rotating carousel to provide even illumination. The source of light was provided by ultra-violet (UV) light wavelength transmitting bulbs and standard fluorescent bulbs. The heat produced by the lights warmed the samples to a temperature of about 28° C. Duplicate samples of each treatment were analyzed weekly for flavor and aroma by two food scientists trained to detect monatin sensory degradation. The intensity of each parameter was rated on a scale of 0 (bland) to 9 (extreme) and then the average response computed. The results are found in Tables 3A and 3B.

Q: For `NC(CC(O)(Cc1c[nH]c2ccccc12)C(=O)O)C(=O)O` (stereo not shown) [R,R-monatin, 2-hydroxy-2-(indol-3-ylmethyl)-4-aminoglutaric acid], which “Flavor Scoring, scale 0 (bland) to 9 (extreme), average” value (from here on “Flavor Scoring, scale 0 (bland)”) (8.3 mg/L O2, 0 ppm EMIQ, Dark, 0 d) is on record?
A: 0.0

Q: What about the “Flavor Scoring, scale 0 (bland)” value (8.3 mg/L O2, 0 ppm EMIQ, Dark, 7 d) of the same compound?
A: 0.0

Q: What about the “Flavor Scoring, scale 0 (bland)” value (8.3 mg/L O2, 0 ppm EMIQ, Dark, 14 d) of the same compound?
A: 0.0

Q: And the “Flavor Scoring, scale 0 (bland)” value (8.3 mg/L O2, 0 ppm EMIQ, Dark, 21 d)?
A: 0.0

Q: And the “Flavor Scoring, scale 0 (bland)” value (8.3 mg/L O2, 0 ppm EMIQ, Dark, 28 d)?
A: 0.0

Q: What about the “Flavor Scoring, scale 0 (bland)” value (8.3 mg/L O2, 0 ppm EMIQ, Light, 0 d) of the same compound?
A: 0.0

Q: What about the “Flavor Scoring, scale 0 (bland)” value (8.3 mg/L O2, 0 ppm EMIQ, Light, 7 d) of the same compound?
A: 3.0

Q: What about the “Flavor Scoring, scale 0 (bland)” value (8.3 mg/L O2, 0 ppm EMIQ, Light, 14 d) of the same compound?
A: 5.0

Q: What about the “Flavor Scoring, scale 0 (bland)” value (8.3 mg/L O2, 0 ppm EMIQ, Light, 21 d) of the same compound?
A: 6.0

Q: And the “Flavor Scoring, scale 0 (bland)” value (8.3 mg/L O2, 0 ppm EMIQ, Light, 28 d)?
A: 4.0

Q: And the “Flavor Scoring, scale 0 (bland)” value (8.3 mg/L O2, 200 ppm EMIQ, Dark, 0 d)?
A: 0.0

Q: What about the “Flavor Scoring, scale 0 (bland)” value (8.3 mg/L O2, 200 ppm EMIQ, Dark, 7 d) of the same compound?
A: 0.0

Q: And the “Flavor Scoring, scale 0 (bland)” value (8.3 mg/L O2, 200 ppm EMIQ, Dark, 14 d)?
A: 0.0

Q: What about the “Flavor Scoring, scale 0 (bland)” value (8.3 mg/L O2, 200 ppm EMIQ, Dark, 21 d) of the same compound?
A: 0.0

Q: What about the “Flavor Scoring, scale 0 (bland)” value (8.3 mg/L O2, 200 ppm EMIQ, Dark, 28 d) of the same compound?
A: 0.0

Q: And the “Flavor Scoring, scale 0 (bland)” value (8.3 mg/L O2, 200 ppm EMIQ, Light, 0 d)?
A: 0.0

Q: What about the “Flavor Scoring, scale 0 (bland)” value (8.3 mg/L O2, 200 ppm EMIQ, Light, 7 d) of the same compound?
A: 0.0

Q: What about the “Flavor Scoring, scale 0 (bland)” value (8.3 mg/L O2, 200 ppm EMIQ, Light, 14 d) of the same compound?
A: 0.5

Q: What about the “Flavor Scoring, scale 0 (bland)” value (8.3 mg/L O2, 200 ppm EMIQ, Light, 21 d) of the same compound?
A: 0.5

Q: What about the “Flavor Scoring, scale 0 (bland)” value (8.3 mg/L O2, 200 ppm EMIQ, Light, 28 d) of the same compound?
A: 0.5

Q: And the “Flavor Scoring, scale 0 (bland)” value (<0.5 mg/L O2, 0 ppm EMIQ, Dark, 0 d)?
A: 0.0

Q: And the “Flavor Scoring, scale 0 (bland)” value (<0.5 mg/L O2, 0 ppm EMIQ, Dark, 7 d)?
A: 0.0

Q: And the “Flavor Scoring, scale 0 (bland)” value (<0.5 mg/L O2, 0 ppm EMIQ, Dark, 14 d)?
A: 0.0

Q: And the “Flavor Scoring, scale 0 (bland)” value (<0.5 mg/L O2, 0 ppm EMIQ, Dark, 21 d)?
A: 0.0

Q: What about the “Flavor Scoring, scale 0 (bland)” value (<0.5 mg/L O2, 0 ppm EMIQ, Dark, 28 d) of the same compound?
A: 0.0

Q: And the “Flavor Scoring, scale 0 (bland)” value (<0.5 mg/L O2, 0 ppm EMIQ, Light, 0 d)?
A: 0.0

Q: What about the “Flavor Scoring, scale 0 (bland)” value (<0.5 mg/L O2, 0 ppm EMIQ, Light, 7 d) of the same compound?
A: 0.5

Q: What about the “Flavor Scoring, scale 0 (bland)” value (<0.5 mg/L O2, 0 ppm EMIQ, Light, 14 d) of the same compound?
A: 1.5

Q: And the “Flavor Scoring, scale 0 (bland)” value (<0.5 mg/L O2, 0 ppm EMIQ, Light, 21 d)?
A: 1.0

Q: And the “Flavor Scoring, scale 0 (bland)” value (<0.5 mg/L O2, 0 ppm EMIQ, Light, 28 d)?
A: 0.5

Q: And the “Flavor Scoring, scale 0 (bland)” value (<0.5 mg/L O2, 200 ppm EMIQ, Dark, 0 d)?
A: 0.0

Q: What about the “Flavor Scoring, scale 0 (bland)” value (<0.5 mg/L O2, 200 ppm EMIQ, Dark, 7 d) of the same compound?
A: 0.0

Q: What about the “Flavor Scoring, scale 0 (bland)” value (<0.5 mg/L O2, 200 ppm EMIQ, Dark, 14 d) of the same compound?
A: 0.0

Q: And the “Flavor Scoring, scale 0 (bland)” value (<0.5 mg/L O2, 200 ppm EMIQ, Dark, 21 d)?
A: 0.0

Q: And the “Flavor Scoring, scale 0 (bland)” value (<0.5 mg/L O2, 200 ppm EMIQ, Dark, 28 d)?
A: 0.0

Q: What about the “Flavor Scoring, scale 0 (bland)” value (<0.5 mg/L O2, 200 ppm EMIQ, Light, 0 d) of the same compound?
A: 0.0

Q: What about the “Flavor Scoring, scale 0 (bland)” value (<0.5 mg/L O2, 200 ppm EMIQ, Light, 7 d) of the same compound?
A: 0.0

Q: And the “Flavor Scoring, scale 0 (bland)” value (<0.5 mg/L O2, 200 ppm EMIQ, Light, 14 d)?
A: 0.0

Q: What about the “Flavor Scoring, scale 0 (bland)” value (<0.5 mg/L O2, 200 ppm EMIQ, Light, 21 d) of the same compound?
A: 0.5

Q: What about the “Flavor Scoring, scale 0 (bland)” value (<0.5 mg/L O2, 200 ppm EMIQ, Light, 28 d) of the same compound?
A: 0.0
